Laboratory results reported in the supplement of paper PMC6411743.
± gives the standard deviation of the averaged measurements. The entries are a selection whose mix differs from that of the whole data set.

By UniProt entry, the sequences of proteins in these tests, tags left out. Where a name states a change or a piece, a line headed by the entry shows the natural chain unless it says otherwise.
UniProt Q8ND76: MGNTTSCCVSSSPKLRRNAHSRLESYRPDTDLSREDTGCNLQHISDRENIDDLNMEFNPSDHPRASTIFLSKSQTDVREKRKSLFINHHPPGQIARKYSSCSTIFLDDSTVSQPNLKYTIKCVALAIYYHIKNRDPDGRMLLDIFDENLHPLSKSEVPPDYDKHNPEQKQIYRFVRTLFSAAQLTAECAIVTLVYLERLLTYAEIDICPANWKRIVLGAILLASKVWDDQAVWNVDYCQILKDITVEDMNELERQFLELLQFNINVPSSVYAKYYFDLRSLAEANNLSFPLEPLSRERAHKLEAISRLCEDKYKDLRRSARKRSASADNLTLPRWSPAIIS
UniProt Q8TDH9: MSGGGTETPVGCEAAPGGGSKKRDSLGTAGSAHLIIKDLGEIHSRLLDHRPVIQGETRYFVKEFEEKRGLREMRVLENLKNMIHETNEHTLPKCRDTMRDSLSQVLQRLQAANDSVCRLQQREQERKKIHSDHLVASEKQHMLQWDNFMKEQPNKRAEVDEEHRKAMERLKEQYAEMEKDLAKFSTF
UniProt Q8TCS8: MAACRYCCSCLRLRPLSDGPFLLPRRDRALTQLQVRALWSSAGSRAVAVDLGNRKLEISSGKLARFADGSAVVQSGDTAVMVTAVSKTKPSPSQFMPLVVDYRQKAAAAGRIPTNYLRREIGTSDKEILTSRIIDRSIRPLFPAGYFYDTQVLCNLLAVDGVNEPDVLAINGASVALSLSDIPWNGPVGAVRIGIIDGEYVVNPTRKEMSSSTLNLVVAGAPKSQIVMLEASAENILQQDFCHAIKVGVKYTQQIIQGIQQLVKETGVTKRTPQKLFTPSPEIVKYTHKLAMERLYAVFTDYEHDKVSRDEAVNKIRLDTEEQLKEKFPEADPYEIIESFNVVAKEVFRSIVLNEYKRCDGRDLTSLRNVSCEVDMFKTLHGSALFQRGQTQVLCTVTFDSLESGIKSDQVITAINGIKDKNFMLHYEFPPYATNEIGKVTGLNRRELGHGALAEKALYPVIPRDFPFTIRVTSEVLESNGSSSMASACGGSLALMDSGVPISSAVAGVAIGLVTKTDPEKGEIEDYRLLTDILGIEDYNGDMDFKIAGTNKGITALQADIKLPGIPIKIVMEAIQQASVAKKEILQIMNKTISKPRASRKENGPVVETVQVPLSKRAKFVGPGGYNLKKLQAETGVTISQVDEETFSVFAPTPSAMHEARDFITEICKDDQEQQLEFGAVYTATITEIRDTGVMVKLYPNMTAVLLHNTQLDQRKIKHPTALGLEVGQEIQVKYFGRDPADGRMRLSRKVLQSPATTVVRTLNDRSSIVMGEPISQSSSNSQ
UniProt Q8WV92, whole entry: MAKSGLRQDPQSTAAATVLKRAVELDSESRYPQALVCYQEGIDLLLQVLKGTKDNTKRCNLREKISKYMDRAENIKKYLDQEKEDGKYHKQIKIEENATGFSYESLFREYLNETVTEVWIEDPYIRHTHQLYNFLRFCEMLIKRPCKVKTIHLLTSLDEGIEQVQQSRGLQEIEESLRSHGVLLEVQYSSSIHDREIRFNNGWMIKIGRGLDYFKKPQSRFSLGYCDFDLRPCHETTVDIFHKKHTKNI
UniProt Q8WZ82: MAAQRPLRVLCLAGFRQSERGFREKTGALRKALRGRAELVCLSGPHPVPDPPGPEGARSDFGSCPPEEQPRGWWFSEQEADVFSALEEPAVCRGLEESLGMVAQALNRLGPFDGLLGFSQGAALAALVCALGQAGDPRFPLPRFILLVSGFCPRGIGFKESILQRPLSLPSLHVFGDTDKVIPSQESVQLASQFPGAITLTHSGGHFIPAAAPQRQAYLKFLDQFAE
UniProt Q8WVT3: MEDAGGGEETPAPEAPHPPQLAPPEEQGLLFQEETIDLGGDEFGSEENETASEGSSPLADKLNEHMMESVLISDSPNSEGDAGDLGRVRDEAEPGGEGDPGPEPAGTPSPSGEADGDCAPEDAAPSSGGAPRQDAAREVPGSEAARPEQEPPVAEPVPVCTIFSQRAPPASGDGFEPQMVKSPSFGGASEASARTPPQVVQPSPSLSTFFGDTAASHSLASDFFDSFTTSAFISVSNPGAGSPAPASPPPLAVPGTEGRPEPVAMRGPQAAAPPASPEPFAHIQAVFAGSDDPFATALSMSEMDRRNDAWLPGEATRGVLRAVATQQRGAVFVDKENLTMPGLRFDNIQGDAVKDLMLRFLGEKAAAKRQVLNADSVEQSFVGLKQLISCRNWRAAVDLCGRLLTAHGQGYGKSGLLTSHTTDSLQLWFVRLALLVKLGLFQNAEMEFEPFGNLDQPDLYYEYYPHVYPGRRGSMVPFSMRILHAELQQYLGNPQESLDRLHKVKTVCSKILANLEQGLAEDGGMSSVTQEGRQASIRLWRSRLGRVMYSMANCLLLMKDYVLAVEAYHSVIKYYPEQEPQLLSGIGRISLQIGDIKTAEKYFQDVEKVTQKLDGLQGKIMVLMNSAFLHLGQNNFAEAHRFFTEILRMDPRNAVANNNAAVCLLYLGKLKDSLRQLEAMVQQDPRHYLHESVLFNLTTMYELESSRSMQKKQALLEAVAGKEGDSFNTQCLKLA
UniProt Q8WUX2: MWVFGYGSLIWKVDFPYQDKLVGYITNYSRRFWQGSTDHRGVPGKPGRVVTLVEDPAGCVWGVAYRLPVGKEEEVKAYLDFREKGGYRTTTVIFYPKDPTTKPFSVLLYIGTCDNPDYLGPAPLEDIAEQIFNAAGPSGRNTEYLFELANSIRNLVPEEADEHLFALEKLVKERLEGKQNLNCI
UniProt Q8WUR7: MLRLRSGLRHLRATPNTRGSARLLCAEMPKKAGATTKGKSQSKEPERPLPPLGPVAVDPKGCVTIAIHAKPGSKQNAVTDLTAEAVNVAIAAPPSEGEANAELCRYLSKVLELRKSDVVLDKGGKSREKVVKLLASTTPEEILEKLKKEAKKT
UniProt Q92733: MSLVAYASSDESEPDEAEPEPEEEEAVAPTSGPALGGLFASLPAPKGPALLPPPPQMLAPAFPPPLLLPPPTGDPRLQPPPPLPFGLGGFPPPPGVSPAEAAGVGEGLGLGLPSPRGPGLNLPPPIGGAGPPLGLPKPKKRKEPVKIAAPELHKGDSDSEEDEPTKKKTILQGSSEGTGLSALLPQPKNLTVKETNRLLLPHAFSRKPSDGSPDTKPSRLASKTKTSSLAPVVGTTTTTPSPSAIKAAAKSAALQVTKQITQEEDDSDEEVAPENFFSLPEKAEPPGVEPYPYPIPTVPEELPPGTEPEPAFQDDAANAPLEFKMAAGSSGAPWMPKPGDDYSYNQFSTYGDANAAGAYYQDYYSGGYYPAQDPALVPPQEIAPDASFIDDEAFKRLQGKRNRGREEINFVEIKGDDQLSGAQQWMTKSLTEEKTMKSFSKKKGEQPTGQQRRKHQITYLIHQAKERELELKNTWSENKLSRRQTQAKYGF
UniProt Q92820: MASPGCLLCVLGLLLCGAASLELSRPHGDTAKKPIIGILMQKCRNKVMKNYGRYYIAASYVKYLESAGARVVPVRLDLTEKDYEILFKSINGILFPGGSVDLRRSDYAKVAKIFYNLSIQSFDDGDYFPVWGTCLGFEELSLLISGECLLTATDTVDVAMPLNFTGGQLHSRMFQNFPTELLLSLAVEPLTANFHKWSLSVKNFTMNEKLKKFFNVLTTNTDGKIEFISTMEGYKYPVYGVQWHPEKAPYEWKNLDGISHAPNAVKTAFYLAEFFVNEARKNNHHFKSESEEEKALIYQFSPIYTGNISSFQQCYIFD
UniProt Q8TCT9: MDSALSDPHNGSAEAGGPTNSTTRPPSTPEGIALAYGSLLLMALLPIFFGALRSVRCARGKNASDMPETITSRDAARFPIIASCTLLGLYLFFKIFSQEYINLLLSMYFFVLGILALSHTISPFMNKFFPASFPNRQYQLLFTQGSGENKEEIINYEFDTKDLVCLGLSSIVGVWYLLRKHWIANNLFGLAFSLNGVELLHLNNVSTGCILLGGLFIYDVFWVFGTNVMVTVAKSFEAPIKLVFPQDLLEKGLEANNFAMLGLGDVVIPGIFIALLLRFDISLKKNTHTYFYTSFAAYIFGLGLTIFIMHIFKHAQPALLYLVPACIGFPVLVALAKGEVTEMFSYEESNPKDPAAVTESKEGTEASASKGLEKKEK
UniProt Q8WW12: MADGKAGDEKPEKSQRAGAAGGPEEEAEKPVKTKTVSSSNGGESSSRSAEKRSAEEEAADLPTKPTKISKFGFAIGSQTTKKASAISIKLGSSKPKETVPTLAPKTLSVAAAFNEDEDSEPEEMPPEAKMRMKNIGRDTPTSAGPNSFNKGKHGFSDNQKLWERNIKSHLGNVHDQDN
UniProt Q8WWI5: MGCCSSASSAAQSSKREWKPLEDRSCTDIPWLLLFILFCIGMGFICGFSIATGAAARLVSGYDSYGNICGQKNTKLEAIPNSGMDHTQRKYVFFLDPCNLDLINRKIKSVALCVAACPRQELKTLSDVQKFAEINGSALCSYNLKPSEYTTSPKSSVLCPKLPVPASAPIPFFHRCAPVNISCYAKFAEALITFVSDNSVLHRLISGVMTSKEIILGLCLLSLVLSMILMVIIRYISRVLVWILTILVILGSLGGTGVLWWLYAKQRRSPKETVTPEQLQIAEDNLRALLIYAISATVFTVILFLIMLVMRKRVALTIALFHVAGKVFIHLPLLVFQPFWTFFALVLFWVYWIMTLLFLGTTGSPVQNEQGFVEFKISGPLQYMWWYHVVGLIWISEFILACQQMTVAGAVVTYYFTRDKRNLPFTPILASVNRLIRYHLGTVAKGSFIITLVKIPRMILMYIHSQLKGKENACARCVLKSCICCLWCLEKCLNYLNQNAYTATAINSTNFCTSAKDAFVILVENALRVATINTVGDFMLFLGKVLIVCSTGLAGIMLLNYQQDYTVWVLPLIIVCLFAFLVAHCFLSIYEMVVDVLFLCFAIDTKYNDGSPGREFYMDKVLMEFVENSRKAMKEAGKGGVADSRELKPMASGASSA
UniProt Q8TB03: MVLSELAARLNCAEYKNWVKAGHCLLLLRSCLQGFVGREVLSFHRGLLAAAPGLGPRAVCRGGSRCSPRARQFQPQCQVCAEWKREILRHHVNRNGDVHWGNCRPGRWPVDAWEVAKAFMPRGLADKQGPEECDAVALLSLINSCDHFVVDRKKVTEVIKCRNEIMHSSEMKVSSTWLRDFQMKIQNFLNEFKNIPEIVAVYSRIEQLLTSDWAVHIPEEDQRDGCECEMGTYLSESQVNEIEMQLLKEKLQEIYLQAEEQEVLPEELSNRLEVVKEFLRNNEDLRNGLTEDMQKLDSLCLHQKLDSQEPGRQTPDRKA
UniProt Q8WZA0: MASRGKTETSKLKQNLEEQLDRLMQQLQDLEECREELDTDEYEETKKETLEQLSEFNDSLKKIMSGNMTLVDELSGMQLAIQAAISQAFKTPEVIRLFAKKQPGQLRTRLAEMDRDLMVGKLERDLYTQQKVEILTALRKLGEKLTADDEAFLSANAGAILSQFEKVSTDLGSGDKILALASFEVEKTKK
UniProt Q92618: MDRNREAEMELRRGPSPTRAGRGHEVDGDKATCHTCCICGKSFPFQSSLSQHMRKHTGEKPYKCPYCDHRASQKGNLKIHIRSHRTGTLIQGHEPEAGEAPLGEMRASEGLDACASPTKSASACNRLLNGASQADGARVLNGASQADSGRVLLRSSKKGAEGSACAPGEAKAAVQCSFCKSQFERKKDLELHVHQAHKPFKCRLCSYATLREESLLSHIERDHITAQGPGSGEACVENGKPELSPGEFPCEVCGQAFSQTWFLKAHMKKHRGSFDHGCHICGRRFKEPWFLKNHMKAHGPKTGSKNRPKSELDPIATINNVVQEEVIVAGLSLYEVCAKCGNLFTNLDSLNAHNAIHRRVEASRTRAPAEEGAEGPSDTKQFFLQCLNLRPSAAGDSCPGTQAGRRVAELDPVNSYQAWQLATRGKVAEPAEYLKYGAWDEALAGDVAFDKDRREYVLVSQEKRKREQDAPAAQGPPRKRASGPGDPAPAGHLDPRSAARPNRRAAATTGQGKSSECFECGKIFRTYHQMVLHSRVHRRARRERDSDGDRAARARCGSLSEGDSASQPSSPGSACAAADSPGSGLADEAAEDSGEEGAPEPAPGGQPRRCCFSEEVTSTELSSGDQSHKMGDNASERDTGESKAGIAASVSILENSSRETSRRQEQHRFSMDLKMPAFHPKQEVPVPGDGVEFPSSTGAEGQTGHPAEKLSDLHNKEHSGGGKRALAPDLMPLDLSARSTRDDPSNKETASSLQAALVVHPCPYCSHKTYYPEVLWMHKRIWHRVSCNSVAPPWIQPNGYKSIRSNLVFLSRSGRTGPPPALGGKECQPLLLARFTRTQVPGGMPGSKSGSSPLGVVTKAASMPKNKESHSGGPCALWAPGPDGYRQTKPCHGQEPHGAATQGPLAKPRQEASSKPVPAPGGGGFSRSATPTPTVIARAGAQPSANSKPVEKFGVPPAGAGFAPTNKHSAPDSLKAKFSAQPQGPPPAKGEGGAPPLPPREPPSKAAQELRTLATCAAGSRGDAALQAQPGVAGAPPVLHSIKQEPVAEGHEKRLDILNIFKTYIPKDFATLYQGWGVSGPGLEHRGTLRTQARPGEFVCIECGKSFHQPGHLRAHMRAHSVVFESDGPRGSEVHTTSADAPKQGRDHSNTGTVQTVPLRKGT

Compound: Nc1ncnc2c1ncn2[C@@H]1O[C@H](COP(=O)(O)OP(=O)(O)NP(=O)(O)O)[C@@H](O)[C@H]1O [adenylyl imidodiphosphate]
Experiment: NP40-soluble protein abundance relative to vehicle (solubility fold change) (ratio); higher = more soluble protein in presence of AMP-PNP
In short: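 Across three independent experiments, values are fold changes against the detergent-processed vehicle for each replicate, based on vsn-normalised intensities. The samples were Jurkat crude lysate treated with eight concentrations (0.1 to 10 mM) for 10 min at room temperature and then 3 min at 37 °C. Lysate was solubilised with 0.8% NP40 and benzonase, ultracentrifuged, and the supernatant analysed by TMT-labelled LC-MS/MS.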

Target | NP40-soluble protein abundance (concentration: 1mM) | NP40-soluble protein abundance (concentration: 2mM) | NP40-soluble protein abundance (concentration: 4mM) | NP40-soluble protein abundance (concentration: 6mM) | NP40-soluble protein abundance (concentration: 8mM) | NP40-soluble protein abundance (concentration: 10mM)
KBTBD8 (UniProt Q8NFY9) | 0.953 ± 0.046 | 0.944 ± 0.043 | 0.955 ± 0.035 | 0.976 ± 0.018 | 0.973 ± 0.02 | 0.965 ± 0.025
UniProt Q92734 and related entries | 0.991 ± 0.011 | 1.06 ± 0.055 | 1.01 ± 0.012 | 1.01 ± 0.02 | 0.965 ± 0.02 | 1.02 ± 0.011
CCNY (UniProt Q8ND76) | 0.9751 ± 0.0046 | 0.989 ± 0.028 | 1.03 ± 0.049 | 0.973 ± 0.025 | 0.993 ± 0.011 | 0.965 ± 0.017
UniProt Q8TDH9 | 1 ± 0.044 | 1.01 ± 0.049 | 0.97 ± 0.037 | 0.951 ± 0.029 | 0.948 ± 0.036 | 0.921 ± 0.038
UniProt Q8WU10 and related entries | 0.99 ± 0.032 | 0.967 ± 0.064 | 1.01 ± 0.032 | 0.988 ± 0.017 | 0.991 ± 0.055 | 1 ± 0.022
PXDN (UniProt Q92626) | 0.964 ± 0.043 | 0.977 ± 0.021 | 0.995 ± 0.034 | 0.978 ± 0.026 | 0.969 ± 0.024 | 1.02 ± 0.024
PNPT1 (UniProt Q8TCS8) | 0.988 ± 0.021 | 0.93 ± 0.054 | 0.947 ± 0.016 | 0.954 ± 0.019 | 0.953 ± 0.021 | 0.922 ± 0.023
MITD1 (UniProt Q8WV92) | 1.034 ± 0.0031 | 1.04 ± 0.0073 | 1.05 ± 0.01 | 1.066 ± 0.0081 | 1.113 ± 0.0065 | 1.13 ± 0.029
OVCA2 (UniProt Q8WZ82) | 1.01 ± 0.018 | 0.992 ± 0.052 | 1.01 ± 0.062 | 0.981 ± 0.018 | 1.01 ± 0.041 | 0.999 ± 0.03
UniProt Q8WVT3 | 1.01 ± 0.031 | 1.001 ± 0.0084 | 1.01 ± 0.013 | 0.992 ± 0.031 | 0.9714 ± 0.0047 | 0.986 ± 0.022
CHAC2 (UniProt Q8WUX2) | 1 ± 0.028 | 0.957 ± 0.02 | 0.992 ± 0.023 | 0.963 ± 0.022 | 1.01 ± 0.023 | 0.96 ± 0.026
UniProt Q8NEZ4 and related entries | 0.938 ± 0.056 | 0.898 ± 0.051 | 0.937 ± 0.052 | 0.93 ± 0.076 | 0.961 ± 0.045 | 0.886 ± 0.092
C15orf40 (UniProt Q8WUR7) | 1.02 ± 0.014 | 1.03 ± 0.067 | 0.988 ± 0.024 | 1.01 ± 0.056 | 0.95 ± 0.019 | 0.965 ± 0.011
PRCC (UniProt Q92733) | 0.97 ± 0.012 | 1.09 ± 0.079 | 0.975 ± 0.029 | 1.01 ± 0.027 | 0.932 ± 0.021 | 1.02 ± 0.049
UniProt Q92619 | 0.9938 ± 0.0083 | 1.04 ± 0.042 | 1.04 ± 0.053 | 1.06 ± 0.025 | 1.05 ± 0.042 | 1.08 ± 0.086
GGH (UniProt Q92820) | 0.985 ± 0.046 | 0.993 ± 0.083 | 1.02 ± 0.07 | 1.05 ± 0.062 | 1.08 ± 0.074 | 1.05 ± 0.09
UniProt Q8TCT9 and related entries | 0.959 ± 0.039 | 0.971 ± 0.05 | 0.961 ± 0.04 | 0.961 ± 0.048 | 0.937 ± 0.044 | 0.959 ± 0.088
UniProt Q8TAA3 and related entries | 0.935 ± 0.044 | 0.934 ± 0.021 | 0.982 ± 0.056 | 1.04 ± 0.049 | 1.04 ± 0.06 | 1.05 ± 0.1
HDAC2 (UniProt Q92769) | 1.02 ± 0.034 | 0.976 ± 0.03 | 0.979 ± 0.035 | 0.993 ± 0.062 | 1.04 ± 0.05 | 0.968 ± 0.071
ARPC1A (UniProt Q92747) | 0.957 ± 0.025 | 0.886 ± 0.099 | 0.968 ± 0.034 | 0.948 ± 0.02 | 0.978 ± 0.051 | 0.899 ± 0.035
PCNP (UniProt Q8WW12) | 1.05 ± 0.03 | 1.26 ± 0.27 | 1.1 ± 0.076 | 1.18 ± 0.056 | 1.17 ± 0.044 | 1.23 ± 0.08
SLC44A1 (UniProt Q8WWI5) | 1.01 ± 0.022 | 1.02 ± 0.043 | 1.02 ± 0.048 | 0.9897 ± 0.0045 | 1.01 ± 0.021 | 1.02 ± 0.029
CXorf38 (UniProt Q8TB03) | 0.9868 ± 0.0075 | 1.01 ± 0.023 | 1 ± 0.042 | 0.997 ± 0.023 | 0.98 ± 0.031 | 0.981 ± 0.042
UniProt Q8WZA0 and related entries | 0.969 ± 0.052 | 0.957 ± 0.0098 | 0.928 ± 0.059 | 0.912 ± 0.044 | 0.921 ± 0.034 | 0.859 ± 0.054
DPF2 (UniProt Q92785) | 0.961 ± 0.071 | 0.98 ± 0.032 | 0.959 ± 0.078 | 0.961 ± 0.095 | 0.925 ± 0.066 | 0.936 ± 0.079
ENGASE (UniProt Q8NFI3) | 0.989 ± 0.04 | 0.967 ± 0.045 | 1.007 ± 0.0092 | 0.963 ± 0.028 | 0.974 ± 0.026 | 0.936 ± 0.023
UniProt Q8TEX9 and related entries | 1.01 ± 0.026 | 0.974 ± 0.059 | 0.99 ± 0.017 | 0.9956 ± 0.0059 | 1.007 ± 0.0054 | 0.981 ± 0.025
ZNF516 (UniProt Q92618) | 1.007 ± 0.0043 | 1.02 ± 0.075 | 1.013 ± 0.0072 | 1.01 ± 0.011 | 0.99588 ± 0.00056 | 1.03 ± 0.053
SNIP1 (UniProt Q8TAD8) | 1.016 ± 0.0054 | 0.999 ± 0.017 | 0.983 ± 0.048 | 0.9983 ± 0.0077 | 1.01 ± 0.032 | 1.01 ± 0.014
RDH11 (UniProt Q8TC12) | 0.945 ± 0.046 | 0.859 ± 0.081 | 0.926 ± 0.028 | 0.953 ± 0.073 | 0.968 ± 0.064 | 0.919 ± 0.061

Given as tab-separated lines: entries from further up
Target	NP40-soluble protein abundance (concentration: 1mM)	NP40-soluble protein abundance (concentration: 2mM)	NP40-soluble protein abundance (concentration: 4mM)	NP40-soluble protein abundance (concentration: 6mM)	NP40-soluble protein abundance (concentration: 8mM)	NP40-soluble protein abundance (concentration: 10mM)
OVCA2 (UniProt Q8WZ82)	1.01 ± 0.018	0.992 ± 0.052	1.01 ± 0.062	0.981 ± 0.018	1.01 ± 0.041	0.999 ± 0.03
SLC44A1 (UniProt Q8WWI5)	1.01 ± 0.022	1.02 ± 0.043	1.02 ± 0.048	0.9897 ± 0.0045	1.01 ± 0.021	1.02 ± 0.029
